Test [1] has as its target human tenascin C (human) (UniProt P24821). The test can be described thus: ELISA on coated ECM protein, anti-PDGF-BB detection; the wild type has the lower affinity. Background: An ELISA detects its analyte on a solid surface through an enzyme-linked reagent.
The target in another test is human fibrinogen (human) (UniProt P02671+P02675+P02679). The test can be described thus: ELISA on coated ECM protein.
Test [2] deals with human tenascin C (human) (UniProt P24821). Kind of test: ELISA on coated ECM protein.
The target in test [3] is human vitronectin (human) (UniProt P04004). The test can be described thus: ELISA on coated ECM protein.
Test [4] deals with human plasma fibronectin (human) (UniProt P02751). Kind of test: ELISA on coated ECM protein.

Chains of the proteins cited; added tags and fusions are not shown. Lines headed by an entry give the natural chain unless they say otherwise; changes in a name come on top. A line that says so, or that is headed by a name, gives the form on record, which may keep a tag or linker. Residues count along the entry.
UniProt P24821, residues 23-2201: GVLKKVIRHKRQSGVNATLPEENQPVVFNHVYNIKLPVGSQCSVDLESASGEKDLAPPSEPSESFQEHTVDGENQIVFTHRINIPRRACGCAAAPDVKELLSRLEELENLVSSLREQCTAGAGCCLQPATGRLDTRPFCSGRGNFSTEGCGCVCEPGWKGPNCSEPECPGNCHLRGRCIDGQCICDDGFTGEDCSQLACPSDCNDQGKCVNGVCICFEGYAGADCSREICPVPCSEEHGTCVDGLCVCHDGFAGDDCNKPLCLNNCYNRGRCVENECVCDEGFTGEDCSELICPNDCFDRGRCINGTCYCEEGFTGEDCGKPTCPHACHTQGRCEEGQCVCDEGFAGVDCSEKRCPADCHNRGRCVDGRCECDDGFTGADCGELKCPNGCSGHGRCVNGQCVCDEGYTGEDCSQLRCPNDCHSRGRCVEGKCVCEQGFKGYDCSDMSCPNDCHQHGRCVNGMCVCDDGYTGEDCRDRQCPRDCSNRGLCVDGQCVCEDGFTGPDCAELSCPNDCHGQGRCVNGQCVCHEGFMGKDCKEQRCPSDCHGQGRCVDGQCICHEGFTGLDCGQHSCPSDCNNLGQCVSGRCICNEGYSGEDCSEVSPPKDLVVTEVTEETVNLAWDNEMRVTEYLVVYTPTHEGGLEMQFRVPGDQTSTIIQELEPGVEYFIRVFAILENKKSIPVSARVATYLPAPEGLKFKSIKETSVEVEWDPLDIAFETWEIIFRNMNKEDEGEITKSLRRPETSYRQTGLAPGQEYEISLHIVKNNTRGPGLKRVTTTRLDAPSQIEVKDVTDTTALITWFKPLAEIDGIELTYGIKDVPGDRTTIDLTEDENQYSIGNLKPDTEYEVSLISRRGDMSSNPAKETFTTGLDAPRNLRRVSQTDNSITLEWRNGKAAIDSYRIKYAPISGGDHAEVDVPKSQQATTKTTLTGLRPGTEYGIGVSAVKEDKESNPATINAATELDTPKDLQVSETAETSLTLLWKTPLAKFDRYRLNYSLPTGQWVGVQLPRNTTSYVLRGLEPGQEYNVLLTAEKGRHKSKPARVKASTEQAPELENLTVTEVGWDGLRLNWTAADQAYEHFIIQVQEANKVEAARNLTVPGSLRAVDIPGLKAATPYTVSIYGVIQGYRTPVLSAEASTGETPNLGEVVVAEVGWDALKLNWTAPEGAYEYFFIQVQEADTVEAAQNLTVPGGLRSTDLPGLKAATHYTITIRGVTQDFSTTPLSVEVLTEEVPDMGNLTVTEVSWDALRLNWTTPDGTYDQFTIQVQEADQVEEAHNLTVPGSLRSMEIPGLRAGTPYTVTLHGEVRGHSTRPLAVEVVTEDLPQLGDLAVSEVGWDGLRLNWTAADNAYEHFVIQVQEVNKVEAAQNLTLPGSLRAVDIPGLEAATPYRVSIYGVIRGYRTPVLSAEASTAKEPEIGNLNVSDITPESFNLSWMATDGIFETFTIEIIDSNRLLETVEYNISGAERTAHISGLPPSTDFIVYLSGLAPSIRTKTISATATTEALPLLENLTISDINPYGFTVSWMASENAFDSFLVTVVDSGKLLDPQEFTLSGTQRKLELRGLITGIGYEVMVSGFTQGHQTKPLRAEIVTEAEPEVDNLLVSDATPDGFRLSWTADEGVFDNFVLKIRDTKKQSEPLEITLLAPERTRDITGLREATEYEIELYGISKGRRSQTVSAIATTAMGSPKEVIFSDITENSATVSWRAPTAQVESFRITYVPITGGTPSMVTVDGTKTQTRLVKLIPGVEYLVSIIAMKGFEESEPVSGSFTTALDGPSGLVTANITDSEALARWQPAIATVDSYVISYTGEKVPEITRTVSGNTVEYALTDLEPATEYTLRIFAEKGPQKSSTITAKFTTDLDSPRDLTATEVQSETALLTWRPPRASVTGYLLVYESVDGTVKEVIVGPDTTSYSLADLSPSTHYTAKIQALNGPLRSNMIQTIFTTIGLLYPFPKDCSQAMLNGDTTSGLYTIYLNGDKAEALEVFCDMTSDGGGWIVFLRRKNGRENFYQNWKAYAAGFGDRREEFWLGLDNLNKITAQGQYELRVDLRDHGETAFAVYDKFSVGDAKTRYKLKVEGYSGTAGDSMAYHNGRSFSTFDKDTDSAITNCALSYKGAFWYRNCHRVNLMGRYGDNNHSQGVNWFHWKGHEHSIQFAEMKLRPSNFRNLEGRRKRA
UniProt P02671: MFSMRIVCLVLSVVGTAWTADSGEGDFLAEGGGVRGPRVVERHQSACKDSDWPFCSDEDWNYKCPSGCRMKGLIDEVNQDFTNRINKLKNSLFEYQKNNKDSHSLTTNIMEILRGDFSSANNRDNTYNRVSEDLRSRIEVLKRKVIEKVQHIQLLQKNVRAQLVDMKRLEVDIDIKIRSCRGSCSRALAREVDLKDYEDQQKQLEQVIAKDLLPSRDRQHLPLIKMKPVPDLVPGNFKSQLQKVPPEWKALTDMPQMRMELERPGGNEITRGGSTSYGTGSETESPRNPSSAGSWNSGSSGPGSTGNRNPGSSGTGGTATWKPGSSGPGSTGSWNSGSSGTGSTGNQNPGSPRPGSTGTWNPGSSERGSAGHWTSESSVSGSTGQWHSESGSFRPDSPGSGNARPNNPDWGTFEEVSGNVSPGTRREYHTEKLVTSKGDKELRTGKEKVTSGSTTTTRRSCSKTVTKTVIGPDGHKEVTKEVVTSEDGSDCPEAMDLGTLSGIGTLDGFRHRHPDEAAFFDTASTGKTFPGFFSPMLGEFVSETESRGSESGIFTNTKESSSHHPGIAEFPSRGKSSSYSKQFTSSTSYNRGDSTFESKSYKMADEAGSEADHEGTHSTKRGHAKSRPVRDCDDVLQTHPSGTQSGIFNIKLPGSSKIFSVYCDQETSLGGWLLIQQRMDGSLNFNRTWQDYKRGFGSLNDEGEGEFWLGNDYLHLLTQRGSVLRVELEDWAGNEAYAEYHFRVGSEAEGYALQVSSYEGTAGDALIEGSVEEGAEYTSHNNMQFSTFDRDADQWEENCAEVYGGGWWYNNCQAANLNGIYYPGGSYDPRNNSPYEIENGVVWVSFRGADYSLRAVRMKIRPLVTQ
UniProt P02675: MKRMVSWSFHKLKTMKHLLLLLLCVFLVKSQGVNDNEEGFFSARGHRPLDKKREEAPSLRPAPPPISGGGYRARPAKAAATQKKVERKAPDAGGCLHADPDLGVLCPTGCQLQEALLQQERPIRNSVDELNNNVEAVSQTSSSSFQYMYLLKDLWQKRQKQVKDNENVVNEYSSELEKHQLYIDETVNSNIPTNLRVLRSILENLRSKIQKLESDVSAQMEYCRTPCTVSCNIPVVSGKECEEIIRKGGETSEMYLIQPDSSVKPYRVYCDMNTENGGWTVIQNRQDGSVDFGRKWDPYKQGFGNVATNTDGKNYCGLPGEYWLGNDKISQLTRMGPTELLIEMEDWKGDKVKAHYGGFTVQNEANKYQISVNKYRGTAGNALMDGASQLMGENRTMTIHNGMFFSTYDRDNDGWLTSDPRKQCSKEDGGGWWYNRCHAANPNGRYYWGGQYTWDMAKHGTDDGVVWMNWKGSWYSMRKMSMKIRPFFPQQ
UniProt P04004, residues 20-478: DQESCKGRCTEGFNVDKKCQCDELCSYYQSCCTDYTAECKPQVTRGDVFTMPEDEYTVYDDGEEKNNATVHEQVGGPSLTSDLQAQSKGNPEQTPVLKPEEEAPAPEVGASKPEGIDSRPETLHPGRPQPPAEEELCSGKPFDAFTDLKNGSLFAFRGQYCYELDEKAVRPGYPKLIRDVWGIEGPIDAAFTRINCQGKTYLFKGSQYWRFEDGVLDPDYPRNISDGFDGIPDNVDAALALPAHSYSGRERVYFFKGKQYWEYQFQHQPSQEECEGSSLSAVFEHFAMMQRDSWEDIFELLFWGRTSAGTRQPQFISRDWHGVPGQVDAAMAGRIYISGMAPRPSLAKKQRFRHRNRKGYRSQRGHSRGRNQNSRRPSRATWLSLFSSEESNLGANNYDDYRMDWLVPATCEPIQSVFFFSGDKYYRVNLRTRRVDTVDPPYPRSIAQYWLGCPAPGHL
human plasma fibronectin (P02751, form named): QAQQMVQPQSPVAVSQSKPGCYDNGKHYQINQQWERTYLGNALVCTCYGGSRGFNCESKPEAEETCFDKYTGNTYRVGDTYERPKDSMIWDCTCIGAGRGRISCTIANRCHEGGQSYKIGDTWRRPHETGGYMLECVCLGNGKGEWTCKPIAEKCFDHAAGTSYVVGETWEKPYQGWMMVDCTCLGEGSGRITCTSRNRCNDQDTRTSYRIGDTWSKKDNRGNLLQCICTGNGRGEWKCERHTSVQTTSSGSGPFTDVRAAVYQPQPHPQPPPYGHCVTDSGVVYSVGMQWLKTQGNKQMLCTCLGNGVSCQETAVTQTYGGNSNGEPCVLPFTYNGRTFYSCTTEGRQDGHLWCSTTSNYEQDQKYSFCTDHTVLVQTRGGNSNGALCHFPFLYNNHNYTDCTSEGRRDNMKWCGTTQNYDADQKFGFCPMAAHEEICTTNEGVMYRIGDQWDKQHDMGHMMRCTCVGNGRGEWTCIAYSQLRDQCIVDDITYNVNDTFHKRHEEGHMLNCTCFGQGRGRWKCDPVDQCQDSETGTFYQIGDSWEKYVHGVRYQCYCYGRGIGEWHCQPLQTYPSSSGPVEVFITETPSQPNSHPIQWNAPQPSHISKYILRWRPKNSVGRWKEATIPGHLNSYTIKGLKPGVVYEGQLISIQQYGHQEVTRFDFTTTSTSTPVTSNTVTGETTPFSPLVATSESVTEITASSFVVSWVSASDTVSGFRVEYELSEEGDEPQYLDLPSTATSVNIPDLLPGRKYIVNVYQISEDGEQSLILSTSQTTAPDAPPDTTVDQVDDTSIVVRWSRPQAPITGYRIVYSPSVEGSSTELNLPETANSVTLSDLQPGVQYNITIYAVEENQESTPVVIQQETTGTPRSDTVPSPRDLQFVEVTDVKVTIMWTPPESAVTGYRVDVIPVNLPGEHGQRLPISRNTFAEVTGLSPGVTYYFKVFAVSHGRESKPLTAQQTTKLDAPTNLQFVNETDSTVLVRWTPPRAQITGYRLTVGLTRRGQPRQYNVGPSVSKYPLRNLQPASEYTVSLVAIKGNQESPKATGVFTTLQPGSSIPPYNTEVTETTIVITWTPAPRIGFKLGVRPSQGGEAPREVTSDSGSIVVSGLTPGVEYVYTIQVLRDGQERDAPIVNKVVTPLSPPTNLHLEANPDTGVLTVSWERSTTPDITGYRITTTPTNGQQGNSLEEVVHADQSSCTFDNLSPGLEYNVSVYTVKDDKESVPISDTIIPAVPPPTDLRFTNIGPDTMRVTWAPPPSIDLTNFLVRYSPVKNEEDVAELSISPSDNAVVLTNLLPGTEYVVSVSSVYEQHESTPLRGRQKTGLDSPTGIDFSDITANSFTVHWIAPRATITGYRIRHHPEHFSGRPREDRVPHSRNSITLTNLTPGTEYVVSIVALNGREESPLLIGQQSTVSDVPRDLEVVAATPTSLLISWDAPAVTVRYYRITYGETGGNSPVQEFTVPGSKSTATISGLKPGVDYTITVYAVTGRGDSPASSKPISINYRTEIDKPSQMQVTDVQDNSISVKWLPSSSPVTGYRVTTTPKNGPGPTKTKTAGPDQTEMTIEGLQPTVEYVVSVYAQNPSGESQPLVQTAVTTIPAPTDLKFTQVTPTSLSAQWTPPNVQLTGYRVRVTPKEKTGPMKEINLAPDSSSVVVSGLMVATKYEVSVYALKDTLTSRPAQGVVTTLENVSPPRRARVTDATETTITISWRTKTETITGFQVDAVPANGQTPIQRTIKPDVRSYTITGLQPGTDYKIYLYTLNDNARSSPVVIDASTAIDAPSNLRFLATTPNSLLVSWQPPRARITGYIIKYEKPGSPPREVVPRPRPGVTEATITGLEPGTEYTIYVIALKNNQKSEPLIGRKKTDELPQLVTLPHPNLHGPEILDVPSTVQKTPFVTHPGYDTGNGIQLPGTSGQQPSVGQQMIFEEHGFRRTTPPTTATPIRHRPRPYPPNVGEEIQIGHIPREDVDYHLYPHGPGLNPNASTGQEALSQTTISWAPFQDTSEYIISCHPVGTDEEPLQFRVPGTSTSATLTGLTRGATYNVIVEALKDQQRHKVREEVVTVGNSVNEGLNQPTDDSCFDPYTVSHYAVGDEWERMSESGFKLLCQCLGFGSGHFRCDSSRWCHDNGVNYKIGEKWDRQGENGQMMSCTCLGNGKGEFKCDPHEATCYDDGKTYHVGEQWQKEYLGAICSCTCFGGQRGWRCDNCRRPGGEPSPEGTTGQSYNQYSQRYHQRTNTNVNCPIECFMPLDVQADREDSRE
PDGF-BB (murine wild-type platelet-derived growth factor-BB) (P31240, residues 82-190): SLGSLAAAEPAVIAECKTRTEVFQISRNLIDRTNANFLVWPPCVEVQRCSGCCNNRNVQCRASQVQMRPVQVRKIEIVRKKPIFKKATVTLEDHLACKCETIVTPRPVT
PDGF-BB/PIGF123-141 (P31240, form named): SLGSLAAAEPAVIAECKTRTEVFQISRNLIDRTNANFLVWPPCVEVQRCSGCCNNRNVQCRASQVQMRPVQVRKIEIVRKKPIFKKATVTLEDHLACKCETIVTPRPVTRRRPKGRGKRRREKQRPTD

These are yes or no findings as the source states them, for the method shown. Some results given as binding are weak or reduced against the parent protein; the word gives no strength.

For the substance “PDGF-BB (murine wild-type platelet-derived growth factor-BB) (from UniProt P31240 82-190) (ligand)”, the binding entry in the test with human tenascin C (human) [1] is on record as “binds”.
“PDGF-BB/PIGF123-141 (from UniProt P31240 82-190)”: the binding result (in the test with human fibrinogen (human); with human tenascin C (human) [2]; in test [3]; in test [4]) was “binds” in each case.

The values above are taken from US20230272045A1.
